Laboratory results as given in the supplement of paper PMC4604168 (melanoma cell lines).
The list shows a part of the results. Single values are uncertain, as repeats are few or missing.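 Imaging used 1,536-well plates; nuclei positive for cleaved PARP by antibody were divided by total DNA-stained nuclei to yield the apoptosis fraction. Doses for screening kept most cells viable, and cell lines differ markedly in resting and induced cleaved-PARP levels.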

Assays:
Assay in all cases: cleaved PARP positive nuclei fraction relative to DMSO control; melanoma cells; higher = more apoptosis
Conditions in all cases: library dose: low library concentration; 72 h
501Mel = test system: 501Mel
A101D = test system: A101D
A2058 = test system: A2058
A375 = test system: A375
C32 = test system: C32
CBRC008 = test system: CBRC008 (line from a melanoma biopsy)
CBRC014 = test system: CBRC014 (line from a melanoma biopsy)
CBRC016 = test system: CBRC016 (line from a melanoma biopsy)
CBRC017 = test system: CBRC017 (line from a melanoma biopsy)
CBRC034 = test system: CBRC034 (line from a melanoma biopsy)
COLO792 = test system: COLO792
COLO800 = test system: COLO800
COLO829 = test system: COLO829
G361 = test system: G361
IPC-298 = test system: IPC-298
IST-MEL1 = test system: IST-MEL1
LB2518-MEL = test system: LB2518-MEL
LOXIMVI = test system: LOXIMVI
MEL-HO = test system: MEL-HO

SMILES | cleaved PARP positive nuclei fraction (501Mel) | cleaved PARP positive nuclei fraction (A101D) | cleaved PARP positive nuclei fraction (A2058) | cleaved PARP positive nuclei fraction (A375) | cleaved PARP positive nuclei fraction (C32) | cleaved PARP positive nuclei fraction (CBRC008) | cleaved PARP positive nuclei fraction (CBRC014) | cleaved PARP positive nuclei fraction (CBRC016) | cleaved PARP positive nuclei fraction (CBRC017) | cleaved PARP positive nuclei fraction (CBRC034) | cleaved PARP positive nuclei fraction (COLO792) | cleaved PARP positive nuclei fraction (COLO800) | cleaved PARP positive nuclei fraction (COLO829) | cleaved PARP positive nuclei fraction (G361) | cleaved PARP positive nuclei fraction (IPC-298) | cleaved PARP positive nuclei fraction (IST-MEL1) | cleaved PARP positive nuclei fraction (LB2518-MEL) | cleaved PARP positive nuclei fraction (LOXIMVI) | cleaved PARP positive nuclei fraction (MEL-HO)
CS(=O)(=O)c1ccc(C(=O)Nc2ccc(Cl)c(-c3ccccn3)c2)c(Cl)c1 [vismodegib] + NC1(c2ccc(-c3nc4ccn5c(=O)[nH]nc5c4cc3-c3ccccc3)cc2)CCC1 [MK2206] (first compound 1 µM, partner dose 0.4 µM) | 101% | 98.5% | 62.3% | 340% | 76.7% | 102% | 74.6% | 46% | 70.4% | 63.3% | 244% | 43.5% | 17.4% | 245% | 41.5% | 66.3% | 211% | 114% | 45.6%
Cn1cnc2c(F)c(Nc3ccc(Br)cc3Cl)c(C(=O)NOCCO)cc21 [selumetinib] + CC(=O)O[C@@]12CO[C@@H]1C[C@H](O)[C@@]1(C)C(=O)[C@H](O)C3=C(C)[C@@H](OC(=O)[C@H](O)[C@@H](NC(=O)OC(C)(C)C)c4ccccc4)C[C@@](O)([C@@H](OC(=O)c4ccccc4)[C@H]21)C3(C)C [Docetaxel] (first compound 0.015 µM, partner dose 0.0001 µM) | 35800% | 59.1% | 1170% | 1140% | 110% | 364% | 109% | 182% | 284% | 372% | 556% | 196% | 78.4% | 543% | 571% | 232% | 178% | 141% | 188%
COc1ccc(C2=N[C@@H](c3ccc(Cl)cc3)[C@@H](c3ccc(Cl)cc3)N2C(=O)N2CCNC(=O)C2)c(OC(C)C)c1 [Nutlin-3] + Cn1nnc2c(C(N)=O)ncn2c1=O [temozolomide] (first compound 0.1 µM, partner dose 2 µM) | 170% | 72% | 68.6% | 143% | 85.7% | 39% | 97.6% | 23.4% | 178% | 61.2% | 90.4% | 43.7% | 105% | 203% | 59.3% | 294% | 32.5% | 107% | 99.6%
CS(=O)(=O)c1ccc(C(=O)Nc2ccc(Cl)c(-c3ccccn3)c2)c(Cl)c1 [vismodegib] + Nc1nc(F)nc2c1ncn2[C@@H]1O[C@H](CO)[C@@H](O)[C@@H]1O [fludarabine] (first compound 1 µM, partner dose 0.2 µM) | 15000% | 43.8% | 85.3% | 5510% | 144% | 67.2% | 113% | 92.3% | 97.9% | 35.9% | 42.5% | 45.2% | 70.3% | 78.7% | 49% | 91.9% | 283% | 192% | 59.9%
C[C@@H](N)c1ccc(C(=O)Nc2ccnc3[nH]ccc23)cc1 + CNC(=O)c1cc(Oc2ccc(NC(=O)Nc3ccc(Cl)c(C(F)(F)F)c3)cc2)ccn1 [sorafenib] (first compound 0.4 µM, partner dose 0.4 µM) | 123% | 136% | 123% | 219% | 89.9% | 86% | 119% | 71.3% | 208% | 216% | 182% | 78.8% | 90.6% | 215% | 246% | 116% | 31.3% | 114% | 188%
CC1(C)CCC(c2ccc(Cl)cc2)=C(CN2CCN(c3ccc(C(=O)NS(=O)(=O)c4ccc(N[C@H](CCN5CCOCC5)CSc5ccccc5)c(S(=O)(=O)C(F)(F)F)c4)cc3)CC2)C1 + Cc1cc(Nc2cc(N3CCN(C)CC3)nc(/C=C/c3ccccc3)n2)n[nH]1 [ENMD2076] (first compound 0.4 µM, partner dose 0.04 µM) | 223% | 176% | 129% | 551% | 908% | 183% | 591% | 658% | 329% | 585% | 533% | 130% | 70.9% | 236% | 91.7% | 94.8% | 655% | 473% | 50%
CC1(C)CCC(c2ccc(Cl)cc2)=C(CN2CCN(c3ccc(C(=O)NS(=O)(=O)c4ccc(N[C@H](CCN5CCOCC5)CSc5ccccc5)c(S(=O)(=O)C(F)(F)F)c4)cc3)CC2)C1 + CC(=O)c1c(C)c2cnc(Nc3ccc(N4CCNCC4)cn3)nc2n(C2CCCC2)c1=O [palbociclib] (first compound 0.4 µM, partner dose 0.04 µM) | 65.8% | 300% | 143% | 834% | 135% | 386% | 390% | 392% | 332% | 159% | 458% | 176% | 139% | 81% | 149% | 111% | 140% | 228% | 162%
